Laboratory results: PMC2843739
These are yes or no findings as the source states them, for the method shown. Binding seen in cells or lysates may run through a third protein. Some results given as binding are weak or reduced against the parent protein; the word gives no strength.

Protein sequences, listed by entry. Tags and fused reporters are not part of them. Residues count along the entry.
UniProt P08113, residues 22-802: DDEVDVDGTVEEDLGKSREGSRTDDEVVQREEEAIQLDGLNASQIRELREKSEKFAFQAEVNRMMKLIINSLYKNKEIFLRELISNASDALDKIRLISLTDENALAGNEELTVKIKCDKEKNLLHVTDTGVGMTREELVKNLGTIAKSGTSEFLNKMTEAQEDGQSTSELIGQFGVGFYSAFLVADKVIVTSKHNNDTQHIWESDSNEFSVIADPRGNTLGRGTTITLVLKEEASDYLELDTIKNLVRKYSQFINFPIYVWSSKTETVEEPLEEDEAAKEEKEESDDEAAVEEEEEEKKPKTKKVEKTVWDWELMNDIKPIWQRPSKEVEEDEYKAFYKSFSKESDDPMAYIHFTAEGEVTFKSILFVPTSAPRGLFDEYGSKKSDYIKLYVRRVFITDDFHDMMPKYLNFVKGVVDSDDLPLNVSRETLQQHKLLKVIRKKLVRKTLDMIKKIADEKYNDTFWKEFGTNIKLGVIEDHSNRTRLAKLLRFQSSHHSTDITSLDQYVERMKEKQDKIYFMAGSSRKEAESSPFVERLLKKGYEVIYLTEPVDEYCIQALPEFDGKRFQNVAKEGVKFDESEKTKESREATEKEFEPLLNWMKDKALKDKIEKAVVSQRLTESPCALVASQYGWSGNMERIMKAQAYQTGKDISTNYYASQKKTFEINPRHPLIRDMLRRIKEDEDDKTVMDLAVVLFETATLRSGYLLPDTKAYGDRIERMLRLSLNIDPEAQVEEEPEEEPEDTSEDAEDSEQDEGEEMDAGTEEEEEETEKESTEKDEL

How the values were obtained:
[1] = target: gp96 (endogenous, RAW264.7 cells) (mouse (endogenous in RAW264.7)) (UniProt P08113); assay: co-IP; RAW264.7 cell lysates, cells with or without 10µM GPM1 for 24h; immunoprecipitated with control IgG or anti-gp96 antibody, immunoblotted with anti-KDELR1, anti-AIMP1 and gp96 antibodies
[2] = target: gp96 (endogenous, RAW264.7 cells) (mouse (endogenous in RAW264.7)) (UniProt P08113); assay: condition: only cells treated with 10µM GPM1 for 24h; co-IP; RAW264.7 cells treated with 10µM GPM1 for 24h; lysates immunoprecipitated with anti-gp96 antibody, immunoblotted with anti-AIMP1

| Binder | binding [1] | binding [2] |
| --- | --- | --- |
| KDEL receptor 1 (KDELR1) (receptor, UniProt Q99JH8 1-212) MNLFRFLGDLSHLLAIILLLLKIWKSRSCAGISGKSQVLFAVVFTARYLDLFTNYISLYNTCMKVVYIACSFTTVWMIYSKFKATYDGNHDTFRVEFLVVPTAILAFLVNHDFTPLEILWTFSIYLESVAILPQLFMVSKTGEAETITSHYLFALGVYRTLYLFNWIWRYHFEGFFDLIAIVAGLVQTVLYCDFFYLYITKVLKGKKLSLPA | binds | – |
| AIMP1 (endogenous, RAW264.7 cells) (protein, UniProt P31230 1-310) MATNDAVLKRLEQKGAEADQIIEYLKQQVALLKEKAILQATMREEKKLRVENAKLKKEIEELKQELILAEIHNGVEQVRVRLSTPLQTNCTASESVVQSPSVATTASPATKEQIKAGEEKKVKEKTEKKGEKKEKQQSAAASTDSKPIDASRLDLRIGCIVTAKKHPDADSLYVEEVDVGEAAPRTVVSGLVNHVPLEQMQNRMVVLLCNLKPAKMRGVLSQAMVMCASSPEKVEILAPPNGSVPGDRITFDAFPGEPDKELNPKKKIWEQIQPDLHTNAECVATYKGAPFEVKGKGVCRAQTMANSGIK | binds | no binding |
